In the supplement of paper PMC3334620:
The full ranking holds about 33,000 sequences; the median of “E-score (-0.5 to 0.5)” is about -0.015, and the highest 2% start at about 0.3. This is one part of the list.

Target: T1, Abf1 (UniProt P14164)
T1 sequence: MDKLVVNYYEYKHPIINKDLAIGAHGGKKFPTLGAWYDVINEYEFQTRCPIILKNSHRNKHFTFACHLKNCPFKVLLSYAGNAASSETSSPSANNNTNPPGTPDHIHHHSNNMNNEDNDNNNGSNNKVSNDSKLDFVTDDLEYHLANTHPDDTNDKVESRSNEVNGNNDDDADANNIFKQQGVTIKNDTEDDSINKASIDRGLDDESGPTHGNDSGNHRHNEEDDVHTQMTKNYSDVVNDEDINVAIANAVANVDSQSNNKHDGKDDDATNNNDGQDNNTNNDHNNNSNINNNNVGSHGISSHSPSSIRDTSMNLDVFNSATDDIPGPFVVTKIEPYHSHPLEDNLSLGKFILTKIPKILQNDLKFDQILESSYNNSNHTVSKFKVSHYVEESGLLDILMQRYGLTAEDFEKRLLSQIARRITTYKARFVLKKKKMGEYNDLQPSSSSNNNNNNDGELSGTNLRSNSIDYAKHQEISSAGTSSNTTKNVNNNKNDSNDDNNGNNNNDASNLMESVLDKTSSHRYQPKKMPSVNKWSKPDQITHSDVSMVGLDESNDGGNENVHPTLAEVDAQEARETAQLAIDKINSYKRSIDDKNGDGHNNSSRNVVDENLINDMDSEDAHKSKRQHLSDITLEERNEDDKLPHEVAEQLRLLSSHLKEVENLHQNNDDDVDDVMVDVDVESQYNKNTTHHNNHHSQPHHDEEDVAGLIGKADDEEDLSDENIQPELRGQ
Assay: PBM E-score (8-mer binding enrichment) (E-score (-0.5 to 0.5)); higher = stronger / more preferred TF binding
Details: protein concentration: 200 nM; construct: GST-full length
How it was run: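 GST-tagged yeast TFs (full-length or DNA-binding domain) were made by PURExpress in vitro transcription/translation and applied at about 100-200 nM to universal all-10-mer Agilent arrays. The arrays were made double-stranded by primer extension, on fresh or once-stripped slides. Bound protein was detected with fluorescent anti-GST, and scans were normalised with masliner. Each ungapped eight-base word, pooled with its reverse complement, received an E-score (modified Wilcoxon-Mann-Whitney statistic) from the Universal PBM Analysis Suite.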

Row | Sequence | PBM E-score
1 | GCCTAGTA | -0.0486
2 | CATTATAA | 0.152
3 | AGAGTTAC | -0.0486
4 | GATGGAAC | -0.183
5 | ACAGTTGG | -0.0476
6 | AAGCATAG | -0.174
7 | CCCATACG | 0.163
8 | TAGACAGA | -0.126
9 | ACCGATTG | 0.0553
10 | GTAACGAA | 0.123
11 | AACATGCT | 0.0812
12 | AGATTCAA | 0.129
13 | CAATATTG | 0.0635
14 | AATTGTCA | 0.335
15 | CGGGGCCC | -0.0715
16 | AAAAGAGT | -0.0776
17 | AGAGAGGC | -0.223
18 | CAGCCAGA | -0.176

Row | Sequence | PBM E-score
19 | GAAAGCTC | -0.278
20 | CGTATGCA | 0.0822
21 | CACCACGC | -0.248
22 | CATAAGCC | -0.108
23 | CAACGAGG | 0.0306
24 | CTGGCATA | 0.0307
25 | TCTAGTCA | 0.0902
26 | GTACATGA | 0.118
27 | GAGGGTCA | -0.164
28 | TGCTCAAA | 0.0834
29 | CAACGAGA | 0.158
30 | CCGCGGTA | 0.0135
31 | GCTCTTAC | 0.0312
32 | AAGCGTGG | -0.0346
33 | AAGAAATT | 0.175
34 | GACCTACA | 0.0466
35 | CCAATACG | 0.0289

A second format for part of the listing above:
Row	Sequence	PBM E-score
22	CATAAGCC	-0.108
24	CTGGCATA	0.0307
25	TCTAGTCA	0.0902
26	GTACATGA	0.118
27	GAGGGTCA	-0.164
28	TGCTCAAA	0.0834
30	CCGCGGTA	0.0135
31	GCTCTTAC	0.0312
33	AAGAAATT	0.175
34	GACCTACA	0.0466
